Consider four substances from article doi:10.1101/2021.12.08.471779.

The chains behind the UniProt entries cited, without tags or fusion partners. Where a name states a change or a piece, a line headed by the entry shows the natural chain unless it says otherwise.
UniProt P02929, whole entry, looked up, stated change not applied: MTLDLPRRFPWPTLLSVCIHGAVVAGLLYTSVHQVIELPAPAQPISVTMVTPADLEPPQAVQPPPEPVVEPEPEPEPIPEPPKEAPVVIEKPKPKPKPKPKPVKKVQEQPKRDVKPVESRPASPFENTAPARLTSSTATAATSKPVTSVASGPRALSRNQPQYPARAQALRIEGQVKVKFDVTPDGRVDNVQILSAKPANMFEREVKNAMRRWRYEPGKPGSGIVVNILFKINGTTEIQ

Experiment in all cases: cross-linking
The target in test [1] is T1, FepA D664C (Escherichia coli K-12) (UniProt P05825).
T1 sequence: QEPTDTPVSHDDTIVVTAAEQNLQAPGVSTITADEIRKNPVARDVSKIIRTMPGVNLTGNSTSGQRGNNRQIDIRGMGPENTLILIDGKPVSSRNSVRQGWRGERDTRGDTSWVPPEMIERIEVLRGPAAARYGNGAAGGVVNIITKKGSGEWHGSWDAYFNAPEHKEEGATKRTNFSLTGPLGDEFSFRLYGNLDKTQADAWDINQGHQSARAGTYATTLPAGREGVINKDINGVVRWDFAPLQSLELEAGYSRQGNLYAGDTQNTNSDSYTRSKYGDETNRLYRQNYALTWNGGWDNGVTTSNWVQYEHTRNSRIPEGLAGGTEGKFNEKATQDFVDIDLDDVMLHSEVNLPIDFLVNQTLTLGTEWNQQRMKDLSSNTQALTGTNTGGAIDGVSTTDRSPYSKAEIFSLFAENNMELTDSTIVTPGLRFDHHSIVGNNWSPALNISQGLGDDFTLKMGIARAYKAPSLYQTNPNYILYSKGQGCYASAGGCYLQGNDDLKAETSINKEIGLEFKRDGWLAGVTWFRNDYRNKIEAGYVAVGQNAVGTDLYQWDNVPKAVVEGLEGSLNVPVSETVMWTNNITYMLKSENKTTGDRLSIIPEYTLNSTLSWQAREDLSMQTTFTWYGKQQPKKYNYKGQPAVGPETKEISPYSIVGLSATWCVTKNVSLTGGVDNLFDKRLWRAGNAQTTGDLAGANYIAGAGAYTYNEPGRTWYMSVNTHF

Test [2] concerns the target T2, FepA L23C (Escherichia coli K-12) (UniProt P05825).
T2 sequence: T1 sequence with L23C, C664D

Test [3] deals with T3, FepA T32C (Escherichia coli K-12) (UniProt P05825).
T3 sequence: T1 sequence with T32C, C664D

Numbering of substitutions follows the chain as printed. These are yes or no findings as the source states them, for the method shown. Binding seen in cells or lysates may run through a third protein. Some binding calls cover weakened binding; strength is not graded here.

“TonB C18G A209C (from UniProt P02929 1-239)”: the binding result in test [1], in test [2] and in test [3] was “no binding” in each case.

As for “TonB C18G Q160C (from UniProt P02929 1-239)”, the binding entry in test [1] is on record as “no binding”; in test [2], “binds”; in test [3] it was “binds”.

For the substance “TonB C18G R204C (from UniProt P02929 1-239)”, the binding result in test [2] and in test [3] was “binds” throughout.

As to “TonB C18G V206C (from UniProt P02929 1-239)”, the binding entry in test [1], in test [2] and in test [3] was “no binding” each time.
